Data reported in article PMC5979965, “Structure-based discovery of mPGES-1 inhibitors suitable for preclinical testing in wild-type mice as a new generation of anti-inflammatory drugs” (Scientific Reports, 2018).

System: COX-1/2
Assay: Activity assay of COX-1/2 (mixture of equal amounts of COX-1 and COX-2, Cayman COX inhibitor screening kit)
Conditions: compound at 100 µM, equal amounts of COX-1 and COX-2 in terms of enzyme activities

SMILES	COX-1/2 Inhibition (%) at 100 µM
Cc1cc(C=C2C(=O)NC(=O)NC2=O)ccc1OCCCCC1CCCCC1	did not significantly inhibit and 9.1 ± 6.6%
O=C1NC(=O)C(=Cc2ccc(OCCCCC3CCCCC3)c([N+](=O)[O-])c2)C(=O)N1	less than 50% and 43 ± 3.2%
O=C1NC(=O)C(=Cc2ccc(OCCCCC3CCCCC3)c(O)c2)C(=O)N1	greater than 50% and 68 ± 3.4%
COc1cc(C=C2C(=O)NC(=O)NC2=O)ccc1OCCCCC1CCCCC1	less than 50% and 28 ± 3.6%
O=C1NC(=O)C(=Cc2ccc(OCCCCC3CCCCC3)c(Br)c2)C(=O)N1	greater than 50% and 63 ± 0.8%

Certain results were filed several times, with different values. The list is limited to them. The source may hold further records. Values given together differ for a reason that is not stated; dose, time, organism, isomer or construct need not be as stated for each record.
